Laboratory results taken from the supplement of paper PMC12889115.
Some of the results follow. These are raw signals, not scaled to a control.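 In the initial screen, polymyxin B was used at a concentration that permeabilizes Salmonella's outer membrane but not its inner membrane. Maximum growth was set by DMSO wells with or without polymyxin B. Since plates varied, data were ranked per plate, and compounds giving the lowest OD600 advanced as hits.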

System: Salmonella enterica serovar Typhimurium SL1344
Assay: bacterial growth OD600 after 18 h with compound and polymyxin B; higher = more bacterial growth (less inhibition)
Conditions: 50 µM, Mueller-Hinton broth

Q: Which “bacterial growth OD600” value (polymyxin B 0.75 µg/mL) does the source give for COCCNC(=O)C1CCN(c2nc(C)c3cc(C)c(C)cc3n2)CC1 here?
A: 0.834

Q: With COCCN(C)Cc1cn(Cc2ccccc2)nc1-c1cc2ccccc2o1 as the compound, how does the “bacterial growth OD600” value (polymyxin B 1 µg/mL) read?
A: 0.949

Q: How did the “bacterial growth OD600” value (polymyxin B 0.75 µg/mL) turn out when Cc1nc(N2CCCCCCC2)ncc1C(C)NC(=O)c1cnccn1 (stereo unspecified) was run?
A: 0.733

Q: COc1cc(CC2(CCC(=O)NCc3cc4cc(Cl)ccc4[nH]3)CCC(=O)N2)ccc1F (stereo unspecified) was tested. Which “bacterial growth OD600” value (polymyxin B 0.75 µg/mL) did it give?
A: 0.881

Q: Which “bacterial growth OD600” value (polymyxin B 0.75 µg/mL) does the source give for Cc1nc(N2CCC(NCC3COc4ccccc4O3)CC2)nc2ccc(F)cc12 (stereo unspecified) here?
A: 0.01

Q: COc1ccc(CC(=O)NCc2nc(-c3ccc(NC(=O)Cc4ccccc4)cc3)oc2C)cc1 was tested. Which “bacterial growth OD600” value (polymyxin B 0.75 µg/mL) did it give?
A: 0.773

Q: For COc1ccc(-c2noc(CN3CCCCC3c3ccc(F)cc3)n2)cc1 (stereo unspecified), which “bacterial growth OD600” value (polymyxin B 1 µg/mL) is on record?
A: 0.561

Q: For O=C(CC1CCC(=O)N1)NCc1ccc2[nH]c3c(c2c1)CCCCC3 (stereo unspecified), which “bacterial growth OD600” value (polymyxin B 1 µg/mL) is on record?
A: 0.914

Q: How did the “bacterial growth OD600” value (polymyxin B 1 µg/mL) turn out when COc1cc(Cl)cc([C@@H]2C[C@H]3CN(C4CCCC4)C(=O)[C@]34CCCN24)c1OC was run?
A: 0.004

Q: With COc1ccc(C2(CC(=O)N3CCCC(COc4ccccc4F)C3)CC(=O)N(C3CC3)C2=O)cc1 (stereo unspecified) as the compound, how does the “bacterial growth OD600” value (polymyxin B 0.75 µg/mL) read?
A: 0.753

Q: With COCCOC1CCN(C(=O)c2cc(COc3ccc(F)cc3F)on2)CC1 as the compound, how does the “bacterial growth OD600” value (polymyxin B 1 µg/mL) read?
A: 0.889

Q: How did the “bacterial growth OD600” value (polymyxin B 0.75 µg/mL) turn out when O=C(NC1CCCN(CCc2ccccc2)C1)c1ccc(Cl)cc1F (stereo unspecified) was run?
A: 0.682

Q: Which “bacterial growth OD600” value (polymyxin B 1 µg/mL) does the source give for CSc1cccc(CNC2CCCN(c3ncccn3)C2)c1 (stereo unspecified) here?
A: 1.12

Q: CCOC(=O)C1(Cc2ccc(F)cc2)CCCN(C(=O)c2ccc(OC)cc2OC)C1 (stereo unspecified) was tested. Which “bacterial growth OD600” value (polymyxin B 1 µg/mL) did it give?
A: 0.909

Q: How did the “bacterial growth OD600” value (polymyxin B 1 µg/mL) turn out when CC(=O)NC(C)c1cnc(N(C)C2CCCCC2)nc1C (stereo unspecified) was run?
A: 0.806

Q: With CN(Cc1cccnc1)C(=O)c1csc2nc(-c3ccccc3Cl)cn12 as the compound, how does the “bacterial growth OD600” value (polymyxin B 1 µg/mL) read?
A: 0.345

Q: Which “bacterial growth OD600” value (polymyxin B 0.75 µg/mL) does the source give for CCn1nc(C)cc1C(=O)N1CCC(C(Cc2ccccc2F)N(C)C(=O)c2ccsc2)CC1 (stereo unspecified) here?
A: 0.008

Q: With COc1ccccc1C1(CC(=O)N2CCCC2c2nccs2)CC(=O)N(C2CCCC2)C1=O (stereo unspecified) as the compound, how does the “bacterial growth OD600” value (polymyxin B 0.75 µg/mL) read?
A: 0.558

Q: For c1ccc(Oc2ncccc2CNCc2cccc(-n3cccn3)c2)cc1, which “bacterial growth OD600” value (polymyxin B 1 µg/mL) is on record?
A: 0.955

Q: Cc1cnccc1CN(C)c1ccc(-c2nc(Cc3ccccc3)no2)cn1 was tested. Which “bacterial growth OD600” value (polymyxin B 0.75 µg/mL) did it give?
A: 0.47

Q: C=CCCC(=O)NC1CC(=O)N(Cc2ccccc2C(F)(F)F)C1 (stereo unspecified) was tested. Which “bacterial growth OD600” value (polymyxin B 1 µg/mL) did it give?
A: 0.873
